# Percent effect of library compounds

Protein sequences, listed by entry. Tags and fused reporters are not part of them. Residues count along the entry.
UniProt Q8IDJ8, 1-583: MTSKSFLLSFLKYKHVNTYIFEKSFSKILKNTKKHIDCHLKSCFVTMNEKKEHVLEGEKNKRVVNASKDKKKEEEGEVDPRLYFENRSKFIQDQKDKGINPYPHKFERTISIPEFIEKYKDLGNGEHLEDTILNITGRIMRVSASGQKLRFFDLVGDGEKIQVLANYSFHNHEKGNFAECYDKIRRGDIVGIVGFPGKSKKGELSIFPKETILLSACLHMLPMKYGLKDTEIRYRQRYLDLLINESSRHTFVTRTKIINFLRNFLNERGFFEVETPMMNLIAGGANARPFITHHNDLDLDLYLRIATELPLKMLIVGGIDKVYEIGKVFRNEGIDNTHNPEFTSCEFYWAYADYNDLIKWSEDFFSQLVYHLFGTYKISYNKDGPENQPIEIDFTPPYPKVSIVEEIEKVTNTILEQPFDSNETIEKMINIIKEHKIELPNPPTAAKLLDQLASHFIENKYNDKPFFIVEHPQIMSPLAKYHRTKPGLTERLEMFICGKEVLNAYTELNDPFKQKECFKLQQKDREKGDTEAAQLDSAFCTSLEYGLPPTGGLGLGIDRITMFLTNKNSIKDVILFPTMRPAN

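Enzyme assay of the cytosolic lysyl-tRNA synthetase in 384-well plates, read by luminescence. Target: Lysine-tRNA ligase, Plasmodium falciparum 3D7 (UniProt Q8IDJ8). Compounds at 30 µM. Direction is inferred from only a few compounds that gave an IC50; most scored high, so higher reads as stronger inhibition. About 69,000 compounds were tested under these conditions; 0.071% (about 49) showed 50% or more at least once.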

Results are given as percent effect. The record does not define 0% and 100%; most values in the screen are far below 50% and negative numbers occur (in some assays of this library far below -100). The compounds are a random part of those screened.

| # | Compound | Percent Effect |
|---|---|---|
| 1 | `Cc1nnc(SCCC(=O)N(C)Cc2ccc(Cl)s2)[nH]1` | 9.029 |
| 2 | `Cn1cccc1CN1CCC2(CC1)CC(Oc1cccnc1)C2` | 12.12 |
| 3 | `O=c1c(C(F)(F)F)cccn1Cc1nnc(-c2cccnc2)o1` | 9.361 |
| 4 | `Cc1ccc2c(n1)N(CCN(C)C)CCN(C(=O)c1cccs1)C2` | -3.082 |
| 5 | `CC(C)CC(=O)N1CCN(C(=O)NC(C)C)CC2(CC(=O)N(C)C2)C1` (stereo not shown) | 7.011 |
| 6 | `COc1ccccc1OCCCn1c(C)c(C)oc1=O` | 5.923 |
| 7 | `COc1ccc(F)cc1C(=O)C1CCCN(Cc2cnc(C)s2)C1` (stereo not shown) | 2.333 |
| 8 | `Cc1cnc2n1CCN(C)C21CCN(CC2CC2)CC1` | 3.357 |
| 9 | `CCc1cc(C(=O)N2CCCC2c2nc(C)c(CC)c(O)n2)on1` (stereo not shown) | 1.551 |
| 10 | `Cc1nc(C)n(CC2CCCN(c3ncnc4ccccc34)C2)n1` (stereo not shown) | 0.6888 |
| 11 | `NC(=O)c1ccc(NC(=O)c2ccncc2F)cn1` | 0.9849 |
| 12 | `CC(C)(C)c1nc(CN2CCCC(Cn3cncn3)C2)no1` (stereo not shown) | 0.7714 |
| 13 | `O=C(NCC(O)c1ccc(Cl)s1)c1ccoc1` (stereo not shown) | 2.791 |
| 14 | `CCN1CCc2[nH]nc(C(=O)N3CCCC3C)c2C1` (stereo not shown) | 9.315 |
| 15 | `Cc1c(CN2CCCC2(C)C(=O)NC2CCCC2)cnn1C` (stereo not shown) | -0.1983 |
| 16 | `COc1ccccc1NC(=O)c1ccc(C)n1C` | 4.891 |
| 17 | `CC(C)(CNC(=O)OC(C)(C)C)NC(=O)C1CC(=O)N(C2CC2)C1` (stereo not shown) | -5.524 |
| 18 | `COCC(=O)N1CCn2c(CN3CCN(C)CC3)cnc2C1` | -2.717 |
| 19 | `CC(NC(=O)N(C)Cc1ccncc1)c1cn(-c2ccccc2)nn1` (stereo not shown) | 1.725 |
| 20 | `OC1(CNCCN2CCCc3ccccc32)CCNC1` (stereo not shown) | 4.762 |
| 21 | `CCN(CC)CCN1CCO[C@H]2[C@@H](OCc3ccncc3)CC[C@@H]21` | 5.341 |
| 22 | `CCc1ncnc2c1CCN(CC(=O)N(C)C)CC2` | 1.888 |
| 23 | `COc1cc(NC2CCCN(c3ncccc3C#N)C2)cc(OC)c1` (stereo not shown) | -6.745 |
| 24 | `COc1ccc(C2=CCN(C(=O)C3CCN(C)C(=O)C3)CC2)cc1` (stereo not shown) | 3.567 |
| 25 | `CCOC1CCN(C(=O)c2c(Cl)c3ccccc3n2C)CC1` | -1.379 |
| 26 | `COCCN(C)C(C(=O)O)c1cc(Cl)ccc1OC` (stereo not shown) | 2.084 |
| 27 | `O=C1CCCC2=C1C(c1ccccc1F)Nc1nonc1N2` (stereo not shown) | 1.847 |
| 28 | `CCOc1ccnc(N2CCN(C(=O)c3cn[nH]c3CC)CC2)n1` | 7.36 |
| 29 | `CCN(C)C(=O)c1cccc(S(=O)(=O)NCCc2nc(C)cc(=O)[nH]2)c1` | -1.438 |
| 30 | `CCc1ncncc1C(=O)NCCNC(=O)c1ccc(C)c(F)c1` | -3.275 |
| 31 | `Cc1cc(CN(C)CCN(C)c2ccccc2)no1` | 1.648 |
| 32 | `CC(C)(C)OC(=O)N1CCC(NC2CCS(=O)(=O)C2)CC1` (stereo not shown) | 10.25 |
| 33 | `CCOCCNC(=O)Cc1cccc(I)c1` | 0.07963 |
| 34 | `O=C(c1cc(-c2cccnc2)[nH]n1)N1CCCC(c2cnccn2)C1` (stereo not shown) | 0.4695 |
| 35 | `CCOCC(=O)N1C[C@@H]2COC[C@]2(c2nc(C)no2)C1` | 5.632 |
| 36 | `Cc1nccn1C1CCCN(C(=O)c2ccc3c(c2)CCC3)C1` (stereo not shown) | 3.127 |
| 37 | `Cc1n[nH]c(C2CN(C(=O)c3cc(C)sc3C)CCO2)n1` (stereo not shown) | 5.748 |
| 38 | `NC(=O)CN1CC(c2nc(C3CC3)no2)C1` | 1.113 |
| 39 | `COCc1ncc(-c2nccn2CCS(C)(=O)=O)cn1` | -0.5187 |
| 40 | `CN(CCc1cn[nH]c1)C(=O)C(c1ccc(F)cc1)N(C)C` (stereo not shown) | 2.254 |
| 41 | `CN(C)[C@@H]1CCN(S(C)(=O)=O)[C@H]1Cc1ccccc1` | 4.284 |
| 42 | `CNS(=O)(=O)c1ccc(CN2CCN3CCNC(=O)C3C2)cc1` (stereo not shown) | 12.45 |
| 43 | `CCc1nnc(SCc2nonc2C)n1C1CC1` | 1.479 |
| 44 | `CC(Cn1ccnc1)NCc1n[nH]c2c1CCC2` (stereo not shown) | 4.034 |
| 45 | `O=C(N[C@@H]1CN(CCc2ccc(F)cc2)C[C@H]1O)c1cscn1` | 1.71 |
| 46 | `COc1ccc(CCC(=O)N2CCCC2Cn2cc(C)cn2)cc1F` (stereo not shown) | -2.459 |
| 47 | `Cc1cc(CN2CC[C@@H]3[C@@H](CCC(=O)N3CCc3c[nH]cn3)C2)oc1C` | 2.263 |
| 48 | `CS(=O)(=O)N1CCC2(CCCN(c3ncc(F)cn3)C2)C1` (stereo not shown) | 2.48 |
| 49 | `O=C1N[C@@H]2CCN(C(=O)c3ccccc3)[C@@H]2C(=O)N1Cc1ccccc1` | 6.274 |
| 50 | `COCCN(C)C[C@@H]1CN(C(=O)c2ccc3c(c2)OCO3)C[C@@H]1CO` | 5.408 |
| 51 | `O=C1CCC2(CCOC2)CN1CCCOc1cccnc1` (stereo not shown) | 3.883 |
| 52 | `Cc1nc(-c2ccc(S(=O)(=O)N3CCCCC3)cc2)co1` | 4.228 |
| 53 | `O[C@H]1CN(Cc2ccnc(N3CCCC3)n2)CC[C@@]12CCCO2` | 5.593 |
| 54 | `CCC(NC(=O)Nc1ccc(OC)c(C)c1)c1ccncc1` (stereo not shown) | -0.711 |
| 55 | `Cc1cc(CS(=O)(=O)NCC2CCCCC2)on1` | 4.416 |
| 56 | `Cc1cc(NC(=O)NCCO)nn1-c1ccc(Cl)cc1Cl` | 5.258 |
| 57 | `Cc1nnc2n1CCN(Cc1csc(COc3ccccc3)n1)C2` | 4.283 |
| 58 | `CCOCCCNC(=O)CCCC(=O)n1nc(C)c2ccccc21` | 5.966 |
| 59 | `CN(C(=O)c1ccco1)c1nc2c(s1)CCCC2` | -1.989 |
| 60 | `CC(CNC(=O)c1cc(C2CC2)nc2c1cnn2C)Cn1cccn1` (stereo not shown) | 6.416 |
| 61 | `COc1cc(C)c(C(C)Nc2ncc(C(N)=O)cc2Cl)cc1OC` (stereo not shown) | 1.664 |
| 62 | `CCc1cnc(NCCCN2CCC(O)CC2)nc1` | 4.604 |
| 63 | `Cc1ncc2c(c1CNC(=O)C1(C)CCCCO1)CCNC2` (stereo not shown) | 1.163 |
| 64 | `O=C(Cc1ccsc1)N1C[C@@H]2OCCN(CC3CCCO3)[C@@H]2C1` (stereo partly shown) | 0.1299 |
| 65 | `CN(C)C(=O)N1CCN(C)c2ncccc2C1` | 1.023 |
| 66 | `CC(C)c1nc(C2CCCN(c3cnc4ccccc4n3)C2)no1` (stereo not shown) | 0.86 |
| 67 | `O=C(CCn1cncn1)N1CCCC1c1noc(C2CC2)n1` (stereo not shown) | 0.816 |
| 68 | `CC(C)OCCCNC(=O)CN1CCN(c2nccs2)C(C)C1` (stereo not shown) | -5.31 |
| 69 | `C=C(C)CN1CCCC1c1nc(Cc2ccc(F)cc2)no1` (stereo not shown) | 2.138 |
| 70 | `COCCCNS(=O)(=O)c1cccc(CSC)c1` | 5.852 |
| 71 | `NC(=O)COc1cccc(Cn2cccn2)c1` | 3.914 |
| 72 | `Cn1c(CN2CCOCC2)cc(=O)c(O)c1CN1CCOCC1` | 2.301 |
| 73 | `COc1cc(OC)cc(N2CCC(NC(=O)c3ccc[nH]3)CC2)c1` | 1.051 |
| 74 | `Cc1csc2nc3n(c(=O)c12)CCN(Cc1c[nH]cn1)CC3` | 0.6528 |
| 75 | `Cc1cc(CN2CCOC(C)(C(=O)N3CCOCC3)C2)no1` (stereo not shown) | 4.964 |
| 76 | `CCn1ccc(-c2cc(C(=O)O)n3ncc(Cl)c3n2)n1` | -2.972 |
| 77 | `COc1ccc(C(C)NC(=O)NCCNc2ccccn2)c(OC)c1` (stereo not shown) | -3.528 |

For reference, 10 entries once more:

| Compound | Percent Effect |
|---|---|
| `Cc1n[nH]c(C2CN(C(=O)c3cc(C)sc3C)CCO2)n1` (stereo not shown) | 5.748 |
| `O=C1CCCC2=C1C(c1ccccc1F)Nc1nonc1N2` (stereo not shown) | 1.847 |
| `C=C(C)CN1CCCC1c1nc(Cc2ccc(F)cc2)no1` (stereo not shown) | 2.138 |
| `Cc1cc(NC(=O)NCCO)nn1-c1ccc(Cl)cc1Cl` | 5.258 |
| `Cc1nccn1C1CCCN(C(=O)c2ccc3c(c2)CCC3)C1` (stereo not shown) | 3.127 |
| `COc1cc(C)c(C(C)Nc2ncc(C(N)=O)cc2Cl)cc1OC` (stereo not shown) | 1.664 |
| `CN(C)C(=O)N1CCN(C)c2ncccc2C1` | 1.023 |
| `CCOCCNC(=O)Cc1cccc(I)c1` | 0.07963 |
| `COc1cc(NC2CCCN(c3ncccc3C#N)C2)cc(OC)c1` (stereo not shown) | -6.745 |
| `CC(C)(C)OC(=O)N1CCC(NC2CCS(=O)(=O)C2)CC1` (stereo not shown) | 10.25 |

From ChEMBL document CHEMBL3988442, “University of Dundee, Small-Polar-MMV Screening Library” (2021).